{
  "source": "patent US10172994B2",
  "about": "“Hemodiafiltration method” (Fresenius Medical Care Deutschland GmbH, priority 2012, dated 2019)",
  "tested_on": "protein bond",
  "test": "Frequencies of the HF (E) field with maximum separation effect for protein-bound uremic toxins",
  "type": "in vitro ADME",
  "details": "E field bands 80-120 MHz and 120-170 MHz",
  "note": "Where “and” joins values, the source holds several entries; their conditions need not be identical. Equal values may be shown once. Where a name gives a salt, the structure may show the parent alone.",
  "data": [
    {"smiles": "O=S(=O)(O)Oc1c[nH]c2ccccc12", "note": "[IDS, indoxyl sulfate]", "values": [
      {"measurement": "Suitable frequencies in the HF field (E field): ranges at which the maximum separation effect was determined", "result": "110 MHz and 110-111 MHz and 111 MHz and 140-141 MHz"}
    ]},
    {"smiles": "Cc1ccc(OS(=O)(=O)O)cc1", "note": "[pCRS]", "values": [
      {"measurement": "Suitable frequencies in the HF field (E field): ranges at which the maximum separation effect was determined", "result": "151-152 MHz and 110 MHz and 110-111 MHz and 111 MHz and 140-141 MHz"}
    ]}
  ]
}
